Measurements reported in patent US20230330045A1 (priority 2020, published 2023).
For at least one compound, name, drawing or mass did not settle the structure.

Chains of the proteins cited; added tags and fusions are not shown. Residues count along the entry.
UniProt O42275, 24-633: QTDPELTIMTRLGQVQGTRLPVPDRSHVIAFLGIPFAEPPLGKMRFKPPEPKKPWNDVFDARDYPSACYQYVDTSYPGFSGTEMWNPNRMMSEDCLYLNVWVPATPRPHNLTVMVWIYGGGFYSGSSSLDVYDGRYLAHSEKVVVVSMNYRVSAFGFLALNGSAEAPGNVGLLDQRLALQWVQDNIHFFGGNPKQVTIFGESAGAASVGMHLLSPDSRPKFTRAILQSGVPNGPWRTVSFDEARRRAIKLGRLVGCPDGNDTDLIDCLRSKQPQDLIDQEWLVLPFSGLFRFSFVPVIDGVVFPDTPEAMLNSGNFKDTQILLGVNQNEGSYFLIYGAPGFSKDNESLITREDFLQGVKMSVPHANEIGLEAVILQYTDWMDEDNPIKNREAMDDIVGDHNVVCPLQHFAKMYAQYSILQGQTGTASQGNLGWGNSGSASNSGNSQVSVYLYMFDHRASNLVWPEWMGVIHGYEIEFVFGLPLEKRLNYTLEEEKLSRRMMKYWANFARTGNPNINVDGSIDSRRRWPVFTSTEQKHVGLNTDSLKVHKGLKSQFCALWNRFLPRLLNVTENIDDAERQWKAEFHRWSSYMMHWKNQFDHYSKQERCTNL

Target: eel acetylcholinesterase (AChE) (Electrophorus electricus, UniProt O42275)
Assay: Eel AChE fluorescence assay (AMPLEX Red kit)
Type: biochemical
Conditions: 20 μM
Description: Enzymatic reactions consisted of 50 μM acetylcholine, 200 μM AIVIPLEX™ Red reagent, 1 U/mL horseradish peroxidase, 0.1 U/mL choline oxidase and 0.096 U/mL acetylcholinesterase, with 30 1% DMSO. […] Control reactions lacking acetylcholinesterase but containing 5 μM H2O2 in presence of compounds were analyzed at the same wavelength to exclude compounds that display assay interference. Dose-response curves were performed in duplicate.

O=C1c2ccccc2-c2ccccc21 [fluorenone]
inhibition of AChE activity (in words): neither fluorenone, nor the close derivative 2,7-dihydroxy-9H-fluoren-9-one inhibit AChE activity
